From PMC5298339

The chains behind the UniProt entries cited, without tags or fusion partners.
UniProt Q04206, whole entry: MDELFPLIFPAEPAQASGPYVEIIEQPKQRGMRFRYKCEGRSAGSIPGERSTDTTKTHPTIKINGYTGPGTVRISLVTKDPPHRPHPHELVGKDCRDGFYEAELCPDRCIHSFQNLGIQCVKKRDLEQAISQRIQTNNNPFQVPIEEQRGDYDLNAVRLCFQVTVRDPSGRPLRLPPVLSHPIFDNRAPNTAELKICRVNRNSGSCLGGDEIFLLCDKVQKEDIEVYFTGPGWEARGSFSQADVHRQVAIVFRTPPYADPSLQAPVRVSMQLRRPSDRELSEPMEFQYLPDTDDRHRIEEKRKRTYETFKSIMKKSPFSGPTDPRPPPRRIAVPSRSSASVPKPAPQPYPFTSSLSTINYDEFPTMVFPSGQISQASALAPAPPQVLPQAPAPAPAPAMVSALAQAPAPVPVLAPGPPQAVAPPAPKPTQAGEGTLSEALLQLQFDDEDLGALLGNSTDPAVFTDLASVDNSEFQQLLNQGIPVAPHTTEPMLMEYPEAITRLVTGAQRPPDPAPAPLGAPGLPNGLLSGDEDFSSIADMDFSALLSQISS

Assays:
[1] = target: p65-NF-kB (nuclear extract of LPS-stimulated hPVECs) (Homo sapiens) (UniProt Q04206); test: competition with a labelled probe; conditions: unlabelled self-competitor against N1, excess 1x/2x/4x in legend, 50X/100X/200X in Methods; EMSA: 0.08 pmol DIG-labelled probe, 1 ug nuclear protein (up to 5 ug); pH and temperature not stated; protein in an extract
[2] = target: p65-NF-kB (nuclear extract of LPS-stimulated hPVECs) (Homo sapiens) (UniProt Q04206); test: EMSA; conditions: 1 ug LPS-stimulated hPVEC nuclear extract, EMSA: 0.08 pmol DIG-labelled probe, 1 ug nuclear protein (up to 5 ug), pH and temperature not stated, protein in an extract, label: DIG-11-ddUTP 3' (TdT)
[3] = target: p65-NF-kB (nuclear extract of LPS-stimulated hPVECs) (Homo sapiens) (UniProt Q04206); test: EMSA supershift; conditions: anti-p65 antibody, LPS-stimulated hPVEC nuclear extract; EMSA: 0.08 pmol DIG-labelled probe, 1 ug nuclear protein (up to 5 ug); pH and temperature not stated; protein in an extract; label: DIG-11-ddUTP 3' (TdT)

Sequence: CCGCCCGGGACTCCCCTGCG (double strand) [unlabelled Hb-alpha promoter NF-kB wild-type competitor]
- binding result [1]: binds

Sequence: CCGCCCGGGCCTGACCTGCG (double strand) [Hb-alpha promoter NF-kB mutant probe]
- binding result [2]: no binding

Sequence: CCGCCCGGGACTCCCCTGCG (double strand) [Hb-alpha promoter NF-kB wild-type probe]
- binding result [3]: binds

Sequence: AGTTGAGGGGACTTTCCCAGGC (double strand) [NF-kB standard probe]
- binding result ([2]; no supershift with this probe): binds

The exact form of at least one protein or probe is not confirmed. Where cells or extracts were used, other partners may take part. For some of these results: A negative result means that nothing was seen under these conditions.
